Data set [1] relates to stDNA (DNA sodium salt from salmon testes, approximately 20 kbp). Kind of data set: MIL-based single droplet extraction (SDE) of stDNA. The settings on record: 20 μL MIL, 2 mL, pH 8, n = 3.
Data set [2] shares this test system. The experiment in a line: MIL-based dispersive droplet extraction (DDE) of stDNA. The settings on record: for % extraction efficiency of 20 kbp stDNA (n = 3): 4.17 nM, 2 mL.
The next data set concerns 20 bp dsDNA. Kind of data set: MIL-based DDE of synthetic duplex DNA. The settings on record: 1224 nM, 2 mL, pH 8, 20 μL MIL, manual agitation 30 s.
The test system of a further data set is 33-mer ssDNA. The experiment in a line: MIL-based DDE of single-stranded oligonucleotide. The settings on record: 1499 nM, 2 mL, pH 8, 20 μL MIL, manual agitation 30 s.
The mark [3] stands for this setting: listed as [(C8)3BnN+][FeCl3Br−].
Setting [4] is: listed as [(C8)3BnN+][FeCl3Br−] (14).

For the molecule `CCCCCCCCCCCCCCCCn1c[n+](CCCCCCCCCCCC[n+]2cn(CCCCCCCCCCCCCCCC)c3ccccc32)c2ccccc21.O=S(=O)([N-]S(=O)(=O)C(F)(F)F)C(F)(F)F.[Cl][Fe-]([Cl])([Cl])[Br]` [MIL 6], the “% extraction efficiency” value is recorded as 5.5% in data set [1] (10 min); 33.3% in data set [1] (20 min); 40.5% in data set [1] (30 min); 60.3% in data set [1] (60 min); 61.6% in data set [1] (90 min); 63.1% in data set [1] (120 min). Besides, the “% extraction efficiency” value in data set [2] (DDE, manual agitation 30 s, applied magnetic field 5 s, 20 μL MIL, pH 8, n = 3, listed as [(C16BnIM)2C12^2+][NTf2−, FeCl3Br−]) is given as “greater than 76%”; in data set [2] (DDE, manual agitation 30 s, applied magnetic field 5 s; 20 μL MIL; pH 8; n = 3; listed as [C16BnIM)2C12^2+][NTf2−, FeCl3Br−]), 76.8%; in data set [2] (DDE, manual agitation 30 s, applied magnetic field 30 s, 20 μL MIL, pH 8, n = 3), 75.6%; in data set [2] (DDE, manual agitation 30 s, applied magnetic field 60 s, 20 μL MIL, pH 8, n = 3), 79.3%; in data set [2] (DDE, manual agitation 30 s, applied magnetic field 120 s, 20 μL MIL, pH 8, n = 3) it was 76.5%; in data set [2] (DDE, manual agitation 30 s, applied magnetic field 300 s, 20 μL MIL, pH 8, n = 3), 77.0%. The “% extraction efficiency of 20 kbp stDNA (n = 3)” value in data set [2] (pH 8, 20 μL MIL, manual agitation 30 s) amounted to 76.8 ± 2.6%. In addition, the “% extraction efficiency of 20 bp dsDNA (n = 3)” value in the data set with 20 bp dsDNA was determined as 64.0 ± 1.1%. Further, in the data set with 33-mer ssDNA, the “% extraction efficiency of 33-mer ssDNA (n = 3)” value was 67.7 ± 3.0%.

Turning to “benzyltrioctylammonium bromotrichloroferrate(III) [MIL 1]”, the “% extraction efficiency of 20 kbp stDNA (n = 3)” value in data set [2] (pH 8, 20 μL MIL, manual agitation 30 s, listed as [(C8)3BnN+][FeCl3Br−]) is reported as 41.0%; in data set [2] (pH 8, 20 μL MIL, manual agitation 30 s, listed as [(C8)3BnN+][FeCl3Br−] (14)), 41.0 ± 0.9%. Besides, the figures for the “% extraction efficiency of 20 bp dsDNA (n = 3)” value in the data set with 20 bp dsDNA (setting [3]) and with 20 bp dsDNA (setting [4]) were 69.3% and 69.3 ± 4.4%, respectively. For the same molecule, the “% extraction efficiency of 33-mer ssDNA (n = 3)” value with 33-mer ssDNA (setting [3]) is reported as 57.6%; in the data set on 33-mer ssDNA (setting [4]), 57.6 ± 5.0%.

As for `CCCCCCCCCCCCCC[P+](CCCCCC)(CCCCCC)CCCCCC.[Cl][Fe-]([Cl])([Cl])[Cl]` [[P6,6,6,14+][FeCl4−], trihexyl(tetradecyl)phosphonium tetrachloroferrate(III), reference compound], the “decrease of extraction efficiency of stDNA in the presence of albumin” value in data set [2] (albumin 3.4 μM, pH 8 (FIG. 8 vs FIG. 10B)) is 46%.

The values above are taken from patent US10280416B1, “Magnetic ionic liquids, methods of making and uses thereof as solvents in the extraction and preservation of nucleic acids” (The University of Toledo, priority 2015, dated 2019).
